From the supplement of paper PMC9015667
Where a name gives a salt, the structure may show the parent alone. The list shows a part of the results. Many values rest on one well or one pass, so single values are uncertain.

Experiments:
Experiment in all cases: reduction in cell viability relative to untreated/vehicle; higher = more growth inhibition
Conditions in all cases: 200 nM; 72 h
M229P = system: M229P (parental melanoma line)
M229R = system: M229R (matched melanoma line resistant to BRAF inhibitors)
M238P = system: M238P (parental melanoma line)
M238R = system: M238R (matched melanoma line resistant to BRAF inhibitors)
M249P = system: M249P (parental melanoma line)
M249R = system: M249R (matched melanoma line resistant to BRAF inhibitors)
UACC62P = system: UACC62P (parental melanoma line)
UACC62R = system: UACC62R (matched melanoma line resistant to BRAF inhibitors)

Which “reduction in cell viability” value (M229P) does the source give for COc1ccc(/C=C\c2cc(OC)c(OC)c(OC)c2)cc1O [Combretastatin A-4] here?
The value was 34.3%.

And the “reduction in cell viability” value (M229R)?
Its value is 36.5%.

What about the “reduction in cell viability” value (M238P) of the same compound?
The value was 51.9%.

What about the “reduction in cell viability” value (M238R) of the same compound?
The value was 59.1%.

And the “reduction in cell viability” value (M249P)?
Its value is 61.2%.

And the “reduction in cell viability” value (M249R)?
Its value is 34.9%.

What about the “reduction in cell viability” value (UACC62P) of the same compound?
The value was 52.1%.

And the “reduction in cell viability” value (UACC62R)?
The value was 68.1%.

What does the source list for O=c1cc(N2CCOCC2)oc2c(-c3cccc4c3sc3ccccc34)cccc12?
reduction in cell viability (M229P): < 0%; reduction in cell viability (M229R): < 0%; reduction in cell viability (M238P): < 0%; reduction in cell viability (M238R): < 0%; reduction in cell viability (M249P): < 0%; reduction in cell viability (M249R): < 0%; reduction in cell viability (UACC62P): < 0%; reduction in cell viability (UACC62R): < 0%

Which results are given for COC(=O)[C@H]1[C@H]2C[C@@H]3c4[nH]c5cc(OC)ccc5c4CCN3C[C@H]2C[C@@H](OC(=O)c2cc(OC)c(OC)c(OC)c2)[C@@H]1OC [Reserpine]?
reduction in cell viability (M229P): < 0%; reduction in cell viability (M229R): < 0%; reduction in cell viability (M238P): < 0%; reduction in cell viability (M238R): < 0%; reduction in cell viability (M249P): < 0%; reduction in cell viability (M249R): < 0%; reduction in cell viability (UACC62P): 2.98%; reduction in cell viability (UACC62R): < 0%

Which results are given for CCN(CC)CCCCNc1ncc2c(n1)N(C)C(=O)N(c1c(Cl)c(OC)cc(OC)c1Cl)C2?
reduction in cell viability (M229P): < 0%; reduction in cell viability (M229R): < 0%; reduction in cell viability (M238P): < 0%; reduction in cell viability (M238R): < 0%; reduction in cell viability (M249P): < 0%; reduction in cell viability (M249R): < 0%; reduction in cell viability (UACC62P): < 0%; reduction in cell viability (UACC62R): < 0%

With CC#CCn1c(N2CCC[C@@H](N)C2)nc2c1c(=O)n(Cc1nc(C)c3ccccc3n1)c(=O)n2C [Linagliptin] as the compound, how does the “reduction in cell viability” value (M229P) read?
Its value is < 0%.

What about the “reduction in cell viability” value (M229R) of the same compound?
The value was < 0%.

And the “reduction in cell viability” value (M238P)?
The value was < 0%.

And the “reduction in cell viability” value (M238R)?
Its value is < 0%.

What about the “reduction in cell viability” value (M249P) of the same compound?
The value was < 0%.

And the “reduction in cell viability” value (M249R)?
The value was < 0%.

And the “reduction in cell viability” value (UACC62P)?
Its value is < 0%.

What about the “reduction in cell viability” value (UACC62R) of the same compound?
Its value is < 0%.

Which results are given for COc1cccc2c1C(=O)c1c(O)c3c(c(O)c1C2=O)C[C@@](O)(C(=O)CO)C[C@@H]3O[C@H]1C[C@H](N)[C@H](O)[C@H](C)O1 [Doxorubicin (Adriamycin)]?
reduction in cell viability (M229P): 65.1%; reduction in cell viability (M229R): 62.1%; reduction in cell viability (M238P): 91.3%; reduction in cell viability (M238R): 83.7%; reduction in cell viability (M249P): 93.5%; reduction in cell viability (M249R): 88.2%; reduction in cell viability (UACC62P): 90.5%; reduction in cell viability (UACC62R): 100%

COc1ccc(/C=C/C(=O)Nc2ccccc2C(=O)O)cc1OC [Tranilast] was tested. Which “reduction in cell viability” value (M229P) did it give?
The value was < 0%.

What about the “reduction in cell viability” value (M229R) of the same compound?
Its value is < 0%.

And the “reduction in cell viability” value (M238P)?
Its value is < 0%.

And the “reduction in cell viability” value (M238R)?
Its value is < 0%.

And the “reduction in cell viability” value (M249P)?
Its value is < 0%.

What about the “reduction in cell viability” value (M249R) of the same compound?
The value was < 0%.

And the “reduction in cell viability” value (UACC62P)?
Its value is < 0%.

And the “reduction in cell viability” value (UACC62R)?
The value was < 0%.

For CCN(CCO)CCCC(C)Nc1ccnc2cc(Cl)ccc12 (centres undefined) [Hydroxychloroquine sulfate], which “reduction in cell viability” value (M229P) is on record?
The value was < 0%.

And the “reduction in cell viability” value (M229R)?
Its value is < 0%.

What about the “reduction in cell viability” value (M238P) of the same compound?
Its value is < 0%.

What about the “reduction in cell viability” value (M238R) of the same compound?
Its value is < 0%.

And the “reduction in cell viability” value (M249P)?
The value was < 0%.

And the “reduction in cell viability” value (M249R)?
The value was < 0%.

And the “reduction in cell viability” value (UACC62P)?
The value was < 0%.

What about the “reduction in cell viability” value (UACC62R) of the same compound?
The value was < 0%.

With CN(C)c1ccc(-c2nc3ncc(Cl)c(N4CCN(CC(=O)Nc5nccs5)CC4)c3[nH]2)cc1 as the compound, how does the “reduction in cell viability” value (M229P) read?
The value was < 0%.

And the “reduction in cell viability” value (M229R)?
The value was < 0%.

And the “reduction in cell viability” value (M238P)?
The value was < 0%.

What about the “reduction in cell viability” value (M238R) of the same compound?
Its value is < 0%.

And the “reduction in cell viability” value (M249P)?
The value was 13.6%.

What about the “reduction in cell viability” value (M249R) of the same compound?
Its value is < 0%.

And the “reduction in cell viability” value (UACC62P)?
Its value is 25.9%.

What about the “reduction in cell viability” value (UACC62R) of the same compound?
The value was 11.7%.

With CC(C)[C@H](CO)Nc1nc(Nc2ccc(C(=O)O)c(Cl)c2)c2ncn(C(C)C)c2n1 [Purvalanol B] as the compound, how does the “reduction in cell viability” value (M229P) read?
Its value is < 0%.

What about the “reduction in cell viability” value (M229R) of the same compound?
The value was < 0%.

And the “reduction in cell viability” value (M238P)?
Its value is < 0%.

What about the “reduction in cell viability” value (M238R) of the same compound?
Its value is < 0%.

What about the “reduction in cell viability” value (M249P) of the same compound?
Its value is < 0%.

And the “reduction in cell viability” value (M249R)?
The value was 0.71%.

What about the “reduction in cell viability” value (UACC62P) of the same compound?
Its value is < 0%.

What about the “reduction in cell viability” value (UACC62R) of the same compound?
Its value is < 0%.

With CCCCc1ncc(/C=C(\Cc2cccs2)C(=O)O)n1Cc1ccc(C(=O)O)cc1 [Eprosartan mesylate] as the compound, how does the “reduction in cell viability” value (M229P) read?
Its value is < 0%.

And the “reduction in cell viability” value (M229R)?
The value was < 0%.

And the “reduction in cell viability” value (M238P)?
Its value is < 0%.

What about the “reduction in cell viability” value (M238R) of the same compound?
The value was 3.02%.

And the “reduction in cell viability” value (M249P)?
The value was < 0%.

What about the “reduction in cell viability” value (M249R) of the same compound?
Its value is < 0%.

And the “reduction in cell viability” value (UACC62P)?
Its value is < 0%.

What about the “reduction in cell viability” value (UACC62R) of the same compound?
Its value is < 0%.

Which results are given for O=C1Nc2ccc(Cl)cc2[C@@](C#CC2CC2)(C(F)(F)F)O1 [Efavirenz]?
reduction in cell viability (M229P): < 0%; reduction in cell viability (M229R): < 0%; reduction in cell viability (M238P): < 0%; reduction in cell viability (M238R): < 0%; reduction in cell viability (M249P): 0.87%; reduction in cell viability (M249R): < 0%; reduction in cell viability (UACC62P): 27.5%; reduction in cell viability (UACC62R): < 0%

Which “reduction in cell viability” value (M229P) does the source give for C1CCC(C(CC2CCCCN2)C2CCCCC2)CC1 (centres undefined) [Perhexiline] here?
The value was < 0%.

And the “reduction in cell viability” value (M229R)?
Its value is < 0%.

What about the “reduction in cell viability” value (M238P) of the same compound?
The value was < 0%.

What about the “reduction in cell viability” value (M238R) of the same compound?
The value was < 0%.

What about the “reduction in cell viability” value (M249P) of the same compound?
The value was < 0%.

And the “reduction in cell viability” value (M249R)?
Its value is < 0%.

And the “reduction in cell viability” value (UACC62P)?
Its value is < 0%.

What about the “reduction in cell viability” value (UACC62R) of the same compound?
Its value is < 0%.

What does the source list for CCOC(=O)C1=C[C@@H](OC(CC)CC)[C@H](NC(C)=O)[C@@H](N)C1 [Oseltamivir phosphate]?
reduction in cell viability (M229P): < 0%; reduction in cell viability (M229R): < 0%; reduction in cell viability (M238P): < 0%; reduction in cell viability (M238R): < 0%; reduction in cell viability (M249P): < 0%; reduction in cell viability (M249R): 16.3%; reduction in cell viability (UACC62P): 9.11%; reduction in cell viability (UACC62R): < 0%

Which results are given for Nc1ccccc1NC(=O)c1ccc(CNC(=O)OCc2cccnc2)cc1 [Entinostat]?
reduction in cell viability (M229P): < 0%; reduction in cell viability (M229R): < 0%; reduction in cell viability (M238P): 7.41%; reduction in cell viability (M238R): < 0%; reduction in cell viability (M249P): < 0%; reduction in cell viability (M249R): 0.04%; reduction in cell viability (UACC62P): < 0%; reduction in cell viability (UACC62R): 2.83%

Which results are given for O=C(Nc1ccccc1)Nc1ccc(-c2ccc(C(=O)[C@@H]3CCC[C@H]3C(=O)O)cc2)cc1?
reduction in cell viability (M229P): < 0%; reduction in cell viability (M229R): < 0%; reduction in cell viability (M238P): < 0%; reduction in cell viability (M238R): < 0%; reduction in cell viability (M249P): < 0%; reduction in cell viability (M249R): 3.64%; reduction in cell viability (UACC62P): 0.21%; reduction in cell viability (UACC62R): < 0%

For CC(C)=CCC/C(C)=C/CC/C(C)=C/CC/C(C)=C/CC/C(C)=C/CC/C(C)=C/CC/C(C)=C/CC/C(C)=C/CC/C(C)=C/CO [Solanesol], which “reduction in cell viability” value (M229P) is on record?
The value was < 0%.

What about the “reduction in cell viability” value (M229R) of the same compound?
Its value is < 0%.

What about the “reduction in cell viability” value (M238P) of the same compound?
The value was < 0%.

What about the “reduction in cell viability” value (M238R) of the same compound?
The value was < 0%.

What about the “reduction in cell viability” value (M249P) of the same compound?
Its value is < 0%.

And the “reduction in cell viability” value (M249R)?
The value was < 0%.

And the “reduction in cell viability” value (UACC62P)?
The value was 2.56%.

And the “reduction in cell viability” value (UACC62R)?
Its value is < 0%.

Which “reduction in cell viability” value (M229P) does the source give for COc1c(O)cc2c(c1O)[C@@H]1O[C@H](CO)[C@@H](O)[C@H](O)[C@H]1OC2=O [Bergenin] here?
Its value is < 0%.

What about the “reduction in cell viability” value (M229R) of the same compound?
Its value is < 0%.

What about the “reduction in cell viability” value (M238P) of the same compound?
The value was < 0%.

And the “reduction in cell viability” value (M238R)?
The value was < 0%.

What about the “reduction in cell viability” value (M249P) of the same compound?
Its value is < 0%.

What about the “reduction in cell viability” value (M249R) of the same compound?
The value was < 0%.

What about the “reduction in cell viability” value (UACC62P) of the same compound?
Its value is < 0%.

What about the “reduction in cell viability” value (UACC62R) of the same compound?
Its value is < 0%.
